Results on two sequences are retold here after paper PMC4477473.

For at least one entry, the source does not settle the construct or the ends of the probe. Protein sequences can lack the tags named with them.

The data set deals with T1, Imp (IGF-II mRNA-binding protein) (UniProt Q9VZ69).
T1 sequence (looked up, limits assumed): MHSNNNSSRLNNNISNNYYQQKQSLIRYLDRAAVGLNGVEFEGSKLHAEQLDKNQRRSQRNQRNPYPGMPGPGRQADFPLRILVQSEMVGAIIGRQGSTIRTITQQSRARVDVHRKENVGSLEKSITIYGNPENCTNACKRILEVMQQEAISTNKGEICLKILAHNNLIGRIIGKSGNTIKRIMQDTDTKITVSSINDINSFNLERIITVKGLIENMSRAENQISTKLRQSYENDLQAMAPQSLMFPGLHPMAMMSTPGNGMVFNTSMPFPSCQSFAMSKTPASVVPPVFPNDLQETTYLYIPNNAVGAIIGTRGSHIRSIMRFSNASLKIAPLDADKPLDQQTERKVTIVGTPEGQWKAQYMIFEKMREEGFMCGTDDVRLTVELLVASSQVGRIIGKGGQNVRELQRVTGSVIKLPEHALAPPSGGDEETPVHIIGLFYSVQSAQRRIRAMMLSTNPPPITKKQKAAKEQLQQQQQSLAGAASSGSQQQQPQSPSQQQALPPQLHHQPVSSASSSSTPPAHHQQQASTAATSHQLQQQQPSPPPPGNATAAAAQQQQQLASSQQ
Kind of data set: EMSA. The settings on record: oligomerization at increasing Imp, 20 mM Tris-HCl pH 7.8, 140 mM KCl, 2 mM MgCl2, 0.1% Triton X- (text cut), 100 ng E. coli tRNA, 10 ul, 30 min at 30 C, native PAGE in 90 mM Tris-borate pH 8.3, recombinant protein, protein details: His tag (pET28a, Ni-agarose), label: 32P, probe letters rebuilt from the primers and the genome. Background: A gel shift assay detects complexes by their altered migration in electrophoresis.

For the sequence “GGGCAUUCACUGAUGCUUUGCGCAGGGGAGGAUUGCCAAGGACACACAAUUAACACAGAAAAACAAAGCGAAAAAUCUACGGCUUUUUCUUUUCUAAUCCCAGAAACAUCAACAAAAGCAAUUUCAAUCAUUUAAUUUCGAACGCAUUUACGCAAGUACACGAAGCAAAAGAAGAAAGUCACGCAAUCAAAUUCUGCAGUCC [pAbp 3'UTR segment]”, under “Imp 12.5-100 nM (Fig. 2c), 2.5-67.5 nM (Fig. S2i)”, the binding result is “binds”.
Regarding “GGGUUGAAACACACAAACACCCACACUACACACACACACACCCACUUUCCCGCCAGCAAUCCCAUAAAAUAGUUAUUUAAAUAGUUUCACCUUUUGUUUUGUUUAACAAAACACUAAACAACAAGCAACCAGAACAGAAACGACAACAAACAAACAAAAAACAAAACACACGAAACGCGUAAUCAAAGCUUUGAUUCAAUGUCU [sqd 3'UTR segment]”, the binding result (Imp 12.5-100 nM) is reported as “binds”.
